# Experimental data published in PubChem BioAssay AID328 (DTP/NCI, 2004).
# The list shows only some results of the screen, not a fair sample: it gathers tests that were run many times, whatever their T/C, doses with no T/C, and many T/C values between a quarter and a half above the control. Other doses and runs of a compound stand elsewhere. T/C is the treated group as % of the vehicle group. Some entries give survivors of the animals treated and no T/C: the source holds a T/C of zero for them, seemingly a mark for toxic or unscored doses. Some doses without a T/C left all or most animals alive at the check, yet need not have been tolerated: survival well below the control is almost never listed, so the zero probably covers shortened survival too. Counts of survivors are from the toxicity check (mostly the fifth day) where no day follows; animals may have died later. Schedules are NCI's codes, taken here to give the interval after Q, in days (D) or hours (H), and the number of doses after X. Some doses were run more than once; the values are given in rising order. For survival time, the PubChem record calls one and a half times the control and up active, and a quarter to a half above the control has no call in these data; cut-offs in other NCI protocols can differ. Some T/C values carry the count of animals alive at the toxicity check (mostly the fifth day); where none is given, no animal had died by that day.
# Tested on: BDF1 mice, P388 leukemia ip, median survival T/C
# Test: NCI In Vivo Anticancer Drug Screen. Data for tumor model P388 Leukemia (intraperitoneal) in B6D2F1 (BDF1) mice
# Conditions: T/C endpoint: median survival time, higher T/C = longer survival
# Procedure, shortened: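 Compound-treated tumour-bearing mice were compared with vehicle-treated controls. Survival was recorded, and the value is the treated-group measurement divided by the control-group measurement (T/C).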
# [1] = dose: 25.0 mg/kg/injection, schedule: Q01DX009 (ip), vehicle: saline
# [2] = dose: 50.0 mg/kg/injection, schedule: Q01DX009 (ip), vehicle: saline
# [3] = dose: 200.0 mg/kg/injection, schedule: Q01DX009 (ip), vehicle: saline
# [4] = dose: 200.0 mg/kg/injection, schedule: Q01DX009 (ip), vehicle: saline with Tween-80
# [5] = dose: 200.0 mg/kg/injection, schedule: Q01DX010 (ip), vehicle: saline
# [6] = dose: 100.0 mg/kg/injection, schedule: Q01DX010 (ip), vehicle: saline
# [7] = dose: 12.5 mg/kg/injection, schedule: Q01DX005 (ip), vehicle: saline with Tween-80
# [8] = dose: 50.0 mg/kg/injection, schedule: Q01DX005 (ip), vehicle: saline with Tween-80
structure (smiles),measurement,setting,value
O=C1c2cccc(O)c2C(=O)c2c(O)cccc21,survivor count,"dose: 200.0 mg/kg/injection, schedule: Q04DX003 (ip), vehicle: saline",6 of 6
COc1cc2c(c(OC)c1OC)CCC1(C)C(=O)NN=C21 (stereo unspecified),survivor count,"dose: 50.0 mg/kg/injection, schedule: Q01DX009 (ip), vehicle: Klucel (hydroxypropylcellulose) (HPC)",1 of 6
CNCCOC(=O)/C=C1/CCC2C(C(O)CC3C(C)(C(=O)OC)CCCC23C)C1C (stereo unspecified),survivor count,"dose: 12.5 mg/kg/injection, schedule: Q01DX009 (ip), vehicle: saline",1 of 6
same,survivor count,[1],0 of 6
same,survivor count,[2],0 of 6
same,survivor count,"dose: 100.0 mg/kg/injection, schedule: Q01DX009 (ip), vehicle: saline",0 of 3
same,survivor count,[3],0 of 3
same,survivor count,"dose: 400.0 mg/kg/injection, schedule: Q01DX009 (ip), vehicle: saline",0 of 3
C=C1CCC2C1C1C(C(C)C)CCC21C (stereo unspecified),survivor count,[4],6 of 6
CS(=O)(=O)OCc1c(O)c2c(c(O)c1COS(C)(=O)=O)C(=O)C=CC2=O,survivor count,"dose: 200.0 mg/kg/injection, schedule: Q04DX003 (ip), vehicle: water",3 of 6
same,survivor count,"dose: 400.0 mg/kg/injection, schedule: Q04DX003 (ip), vehicle: water",5 of 6
COc1cccc2c1C(=O)c1c(O)c3c(c(O)c1C2=O)C[C@@](O)(/C(C)=N\NC=O)C[C@@H]3OC1CC(N)C(O)C(C)O1 (stereo partly specified),T/C,"dose: 4.0 mg/kg/injection, schedule: Q01DX009 (ip), vehicle: saline",126 % of control
same,T/C,"dose: 8.0 mg/kg/injection, schedule: Q01DX009 (ip), vehicle: saline",126 % of control [5 of 6 alive]
COc1ccc(N2c3ccccc3-c3cc[nH]c(=O)c3[C@H]2O)cc1OC,T/C,"dose: 37.5 mg/kg/injection, schedule: Q01DX006 (ip), vehicle: Klucel (hydroxypropylcellulose) (HPC)",127 % of control
same,T/C,"dose: 150.0 mg/kg/injection, schedule: Q01DX006 (ip), vehicle: Klucel (hydroxypropylcellulose) (HPC)",135 % of control
same,survivor count,"dose: 300.0 mg/kg/injection, schedule: Q01DX006 (ip), vehicle: Klucel (hydroxypropylcellulose) (HPC)",0 of 3
CCS(=O)(=O)CCN1C(=O)CN=C(c2ccccc2F)c2cc(Cl)ccc21,survivor count,[4],0 of 6
COC(=O)C(CCC1CCCCN1)(c1ccccc1)c1ccccc1 (stereo unspecified),T/C,[1],136 % of control
same,T/C,[2],145 % of control
same,T/C,"dose: 100.0 mg/kg/injection, schedule: Q04DX003 (ip), vehicle: saline with Tween-80",146 % of control
same,survivor count,"dose: 150.0 mg/kg/injection, schedule: Q04DX003 (ip), vehicle: saline with Tween-80",1 of 6
COC(=O)NC1=C(N2CC2)C(=O)C(NC(=O)OC)=C(N2CC2)C1=O,survivor count,"dose: 1.5 mg/kg/injection, schedule: Q01DX009 (ip), vehicle: saline",6 of 6
same,survivor count,"dose: 3.0 mg/kg/injection, schedule: Q01DX009 (ip), vehicle: saline",6 of 6
same,survivor count,"dose: 6.0 mg/kg/injection, schedule: Q01DX009 (ip), vehicle: saline",4 of 6 and 6 of 6
O=[N+]([O-])CC(OCCO)C(Cl)(Cl)Cl (stereo unspecified),survivor count,"dose: 25.0 mg/kg/injection, schedule: Q01DX009 (ip), vehicle: acetone",2 of 6
same,survivor count,"dose: 60.0 mg/kg/injection, schedule: Q01DX001 (ip), vehicle: Klucel (hydroxypropylcellulose) (HPC)",0 of 6
same,survivor count,"dose: 60.0 mg/kg/injection, schedule: Q04DX003 (ip), vehicle: saline with Tween-80",0 of 6
same,survivor count,"dose: 90.0 mg/kg/injection, schedule: Q01DX001 (ip), vehicle: Klucel (hydroxypropylcellulose) (HPC)",0 of 6
same,survivor count,"dose: 90.0 mg/kg/injection, schedule: Q04DX003 (ip), vehicle: saline with Tween-80",0 of 6
same,survivor count,"dose: 135.0 mg/kg/injection, schedule: Q01DX001 (ip), vehicle: Klucel (hydroxypropylcellulose) (HPC)",0 of 6
same,survivor count,"dose: 135.0 mg/kg/injection, schedule: Q04DX003 (ip), vehicle: saline with Tween-80",0 of 6
Cc1cc2nc[nH]c(=O)n2n1,survivor count,[4],4 of 6
CCc1ccc2c(c1)N(CCCN(CCCl)CCCl)c1ccccc1S2,T/C,"dose: 3.1 mg/kg/injection, schedule: Q04DX003 (ip), vehicle: saline with Tween-80",131 % of control
same,T/C,"dose: 6.25 mg/kg/injection, schedule: Q04DX003 (ip), vehicle: saline with Tween-80",135 and 137 % of control
same,T/C,"dose: 12.5 mg/kg/injection, schedule: Q04DX003 (ip), vehicle: saline with Tween-80",144 and 149 % of control [5 of 6 alive]
COc1cc(C(=O)c2cocc2C(=O)c2ccc3c(c2)OCO3)cc(OC)c1OC,T/C,[5],143 % of control
same,T/C,"dose: 400.0 mg/kg/injection, schedule: Q01DX010 (ip), vehicle: water",144 % of control
CC(=O)OC1(C)CC(C)C(=O)C(C(O)CC2CC(=O)NC(=O)C2)C1 (stereo unspecified),T/C,"dose: 0.13 mg/kg/injection, schedule: Q01DX010 (ip), vehicle: water",127 % of control
same,T/C,"dose: 1.17 mg/kg/injection, schedule: Q04DX003 (ip), vehicle: saline",125 % of control
same,T/C,"dose: 1.94 mg/kg/injection, schedule: Q04DX003 (ip), vehicle: saline",132 % of control
same,T/C,"dose: 3.24 mg/kg/injection, schedule: Q04DX003 (ip), vehicle: saline",127 % of control
same,survivor count,"dose: 10.0 mg/kg/injection, schedule: Q01DX001 (sc), vehicle: saline",5 of 8
same,survivor count,"dose: 16.7 mg/kg/injection, schedule: Q01DX001 (sc), vehicle: saline",3 of 8
same,survivor count,"dose: 6000.0 micrograms/kg/injection, schedule: Q04DX003 (sc), vehicle: saline",7 of 8
CSc1nc2n(Cc3c[nH]c(=O)[nH]c3=O)cc(C)cc-2c(=O)n1,survivor count,"dose: 400.0 mg/kg/injection, schedule: Q01DX001 (ip), vehicle: saline with Tween-80",2 of 6
COC(=O)C1c2cc3c(cc2C(OC2OC(C)C(OC)C(C)(OC)C2OC)CC1(C)O)C(=O)c1c(O)cc2c(c1C3=O)OC1OC2(C)C(O)C([N+](C)(C)[O-])C1O (stereo unspecified),survivor count,"dose: 25.0 mg/kg/injection, schedule: Q01DX010 (ip), vehicle: saline",2 of 6 and 4 of 6
same,survivor count,"dose: 50.0 mg/kg/injection, schedule: Q01DX010 (ip), vehicle: saline",2 of 6
same,survivor count,[6],0 of 6
same,survivor count,[5],0 of 6
CC1(c2ccccc2)O[C@@H]2C[C@H]3[C@@H]4CCC5=CC(=O)C=C[C@]5(C)[C@@]4(F)[C@@H](O)C[C@]3(C)[C@]2(C(=O)CO)O1 (stereo partly specified),T/C,"dose: 100.0 mg/kg/injection, schedule: Q04DX003 (ip), vehicle: alcohol",125 % of control [5 of 6 alive]
same,survivor count,[3],6 of 6
same,T/C,"dose: 200.0 mg/kg/injection, schedule: Q04DX003 (ip), vehicle: alcohol",125 % of control
same,survivor count,"dose: 300.0 mg/kg/injection, schedule: Q04DX003 (ip), vehicle: saline",2 of 6 and 5 of 6
CN(C)c1ccc(Cc2ccc(N(C)C)c(C(O)(c3ccccc3)c3ccccc3)c2)cc1C(O)(c1ccccc1)c1ccccc1,survivor count,[7],6 of 6
same,survivor count,"dose: 25.0 mg/kg/injection, schedule: Q01DX005 (ip), vehicle: saline with Tween-80",6 of 6
same,survivor count,[8],6 of 6
ClCC1CCN(CCc2ccccc2)CC1,survivor count,[3],1 of 6
S=P(Oc1ccccc1)(N1CC1)N1CC1,survivor count,"dose: 200.0 mg/kg/injection, schedule: Q01DX007 (ip), vehicle: DMSO",6 of 6
same,survivor count,"dose: 400.0 mg/kg/injection, schedule: Q01DX007 (ip), vehicle: DMSO",6 of 6
Cc1cc(N(CCCl)CCCl)ccc1N=Nc1ccccc1C(=O)[O-].Cc1cc(N(CCCl)CCCl)ccc1N=Nc1ccccc1C(=O)[O-].[Cu+2],T/C,"dose: 37.5 mg/kg/injection, schedule: Q04DX003 (ip), vehicle: saline with Tween-80",135 % of control
Nc1nc2ncc(CNc3ccc(C(=O)NC(CCC(=O)O)C(=O)O)cc3)nc2c(=O)[nH]1 (stereo unspecified),survivor count,[6],4 of 6
same,survivor count,[5],1 of 6
same,survivor count,"dose: 400.0 mg/kg/injection, schedule: Q01DX010 (ip), vehicle: saline",0 of 6
O=c1oc2ccccc2n1Cc1ccc(Cl)cc1,survivor count,[7],5 of 5
same,survivor count,[8],3 of 5
same,survivor count,"dose: 100.0 mg/kg/injection, schedule: Q01DX005 (ip), vehicle: saline with Tween-80",5 of 5
